Data source: PubChem BioAssay AID1259308 (NCATS, 2017)

- Purpose: 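Knock-downs that increase output of a recombinant reporter protein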 (primary screen)
- Cell system: human HEK293 embryonic kidney cells stably expressing firefly luciferase (HEK-CMV-Luc2-Hygro)
- Reagent: single siRNA against human genes, 0.8 pmol siRNA per well
- Duration: 72 h
- Measurement: 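Reporter luminescence and viable-cell signal on separate replicate plates, given as percent of non-targeting control and median/MAD z-scores, plus per-cell luciferase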
- Reading the numbers: total luciferase, z-score: higher = more reporter protein produced
- Call rule: 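Active when the median/MAD z-score for overall luciferase is greater than 3; a gene was taken forward for validation with new siRNAs if at least two of its three siRNAs passed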
- Meaning of the calls: active = raised luciferase; inactive = no rise
The deposit covers about 59,000 reagents; shown is a part drawn at random. Over the whole deposit, about 1,510 (2.6%) got an active call. 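Calls use total luciferase alone and ignore viability, so some active siRNAs may act by altering cell number.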 The numbers tell different reagents against one gene apart. Not all columns of the deposit are shown. Reagent sequences are not shown.

no.	Target gene	reagent	total luciferase, z-score	activity call
1	ACVR1C (GeneID 130399)	1	1.45	inactive
2	ACVR1C (GeneID 130399)	2	0.367	inactive
3	ACVR1C (GeneID 130399)	3	-0.0263	inactive
4	SLC66A2 (GeneID 80148)	1	1.42	inactive
5	SLC66A2 (GeneID 80148)	2	-1.67	inactive
6	SLC66A2 (GeneID 80148)	3	1.87	inactive
7	TMCO5A (GeneID 145942)	1	-1.01	inactive
8	TMCO5A (GeneID 145942)	2	-0.918	inactive
9	TMCO5A (GeneID 145942)	3	0.907	inactive
10	ZNF669 (GeneID 79862)	1	-0.294	inactive
11	ZNF669 (GeneID 79862)	2	0.133	inactive
12	ZNF669 (GeneID 79862)	3	1.81	inactive
13	KCMF1 (GeneID 56888)	1	1.7	inactive
14	KCMF1 (GeneID 56888)	2	0.673	inactive
15	KCMF1 (GeneID 56888)	3	0.0386	inactive
16	MEOX2 (GeneID 4223)	1	0.412	inactive
17	MEOX2 (GeneID 4223)	2	0.396	inactive
18	MEOX2 (GeneID 4223)	3	0.722	inactive
19	CXADR (GeneID 1525)	1	-1.14	inactive
20	CXADR (GeneID 1525)	2	-1.09	inactive
21	CXADR (GeneID 1525)	3	1.23	inactive
22	DGAT2L6 (GeneID 347516)	1	1.08	inactive
23	DGAT2L6 (GeneID 347516)	2	0.439	inactive
24	DGAT2L6 (GeneID 347516)	3	-0.19	inactive

The list goes on, starting with the last 4 of the part before.
no.	Target gene	reagent	total luciferase, z-score	activity call
21	CXADR (GeneID 1525)	3	1.23	inactive
22	DGAT2L6 (GeneID 347516)	1	1.08	inactive
23	DGAT2L6 (GeneID 347516)	2	0.439	inactive
24	DGAT2L6 (GeneID 347516)	3	-0.19	inactive
25	PPP6R3 (GeneID 55291)	1	0.681	inactive
26	PPP6R3 (GeneID 55291)	2	-1	inactive
27	PPP6R3 (GeneID 55291)	3	0.738	inactive
28	GOT1 (GeneID 2805)	1	0.831	inactive
29	GOT1 (GeneID 2805)	2	1.37	inactive
30	GOT1 (GeneID 2805)	3	-0.758	inactive
31	TSPY3 (GeneID 728137)	1	0.175	inactive
32	TSPY3 (GeneID 728137)	2	2.59	inactive
33	TSPY3 (GeneID 728137)	3	0.695	inactive
34	DNAL1 (GeneID 83544)	1	-1.38	inactive
35	DNAL1 (GeneID 83544)	2	1.56	inactive
36	DNAL1 (GeneID 83544)	3	2.08	inactive
37	DDX52 (GeneID 11056)	1	-0.949	inactive
38	DDX52 (GeneID 11056)	2	0.934	inactive
39	DDX52 (GeneID 11056)	3	1.59	inactive
